Reference: PMC7547721
No constants are given. Whether binding was seen depends on the method and setting. Binding seen in cells or lysates may run through a third protein. Some binding calls cover weakened binding; strength is not graded here. For some assays here: Sequences can lack the tags named with a protein.

Chains of the proteins cited; added tags and fusions are not shown.
UniProt Q92731: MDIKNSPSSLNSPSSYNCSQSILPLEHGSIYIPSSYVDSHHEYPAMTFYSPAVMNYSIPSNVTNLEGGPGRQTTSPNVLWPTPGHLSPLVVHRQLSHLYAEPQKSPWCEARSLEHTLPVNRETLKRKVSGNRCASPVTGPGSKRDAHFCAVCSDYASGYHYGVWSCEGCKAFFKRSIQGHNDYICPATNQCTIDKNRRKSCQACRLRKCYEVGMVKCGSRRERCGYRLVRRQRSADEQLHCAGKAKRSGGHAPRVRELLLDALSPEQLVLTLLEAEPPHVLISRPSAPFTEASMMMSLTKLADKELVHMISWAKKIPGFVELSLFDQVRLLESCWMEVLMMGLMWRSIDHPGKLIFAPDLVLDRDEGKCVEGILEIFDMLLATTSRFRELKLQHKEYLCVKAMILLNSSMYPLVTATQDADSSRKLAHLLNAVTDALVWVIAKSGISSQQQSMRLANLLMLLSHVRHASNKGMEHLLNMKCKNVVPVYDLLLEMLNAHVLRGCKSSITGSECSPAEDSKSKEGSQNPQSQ

T1: Fragile-site associated tumour suppressor (FATS), Flag-tagged (UniProt Q96M02)
T1 sequence: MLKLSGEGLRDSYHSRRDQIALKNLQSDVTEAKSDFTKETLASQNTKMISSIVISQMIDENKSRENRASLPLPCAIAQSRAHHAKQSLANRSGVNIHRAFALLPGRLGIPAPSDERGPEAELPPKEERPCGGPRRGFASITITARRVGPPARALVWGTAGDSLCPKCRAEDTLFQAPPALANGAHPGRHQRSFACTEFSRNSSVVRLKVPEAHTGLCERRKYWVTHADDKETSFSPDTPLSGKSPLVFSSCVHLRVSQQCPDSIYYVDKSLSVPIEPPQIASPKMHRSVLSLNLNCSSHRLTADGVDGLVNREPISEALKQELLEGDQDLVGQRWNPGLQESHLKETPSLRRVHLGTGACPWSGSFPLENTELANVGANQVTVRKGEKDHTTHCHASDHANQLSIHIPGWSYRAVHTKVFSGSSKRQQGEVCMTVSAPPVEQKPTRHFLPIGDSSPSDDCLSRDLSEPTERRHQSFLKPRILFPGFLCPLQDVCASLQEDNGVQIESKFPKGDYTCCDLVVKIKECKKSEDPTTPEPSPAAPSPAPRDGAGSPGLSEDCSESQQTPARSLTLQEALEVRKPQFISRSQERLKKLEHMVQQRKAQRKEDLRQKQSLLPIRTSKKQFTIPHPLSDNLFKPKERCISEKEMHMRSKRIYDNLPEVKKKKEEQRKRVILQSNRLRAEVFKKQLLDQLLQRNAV

B1: Ornithine decarboxylase (ODC) (enzyme, UniProt P11926 1-461)
chain: MNNFGNEEFDCHFLDEGFTAKDILDQKINEVSSSDDKDAFYVADLGDILKKHLRWLKALPRVTPFYAVKCNDSKAIVKTLAATGTGFDCASKTEIQLVQSLGVPPERIIYANPCKQVSQIKYAANNGVQMMTFDSEVELMKVARAHPKAKLVLRIATDDSKAVCRLSVKFGATLRTSRLLLERAKELNIDVVGVSFHVGSGCTDPETFVQAISDARCVFDMGAEVGFSMYLLDIGGGFPGSEDVKLKFEEITGVINPALDKYFPSDSGVRIIAEPGRYYVASAFTLAVNIIAKKIVLKEQTGSDDEDESSEQTFMYYVNDGVYGSFNCILYDHAHVKPLLQKRPKPDEKYYSSSIWGPTCDGLDRIVERCDLPEMHVGDWMLFENMGAYTVAAASTFNGFQRPTIYYVMSGPAWQLMQQFQNPDFPPEVEEQDASTLPVSCAWESGMKRHRAACASASINV

Experiments:
[1] = target: T1, Fragile-site associated tumour suppressor (FATS), Flag-tagged; assay: co-IP; A549 cells transfected with control or Flag-FATS vector for 48 h; RIPA lysate (1000 µg total protein in 500 µl) incubated overnight at 4 °C with beads carrying 1 µg of Flag, ODC or ERβ antibody or normal control IgG; three washes with lysis buffer; western blot
[2] = target: Oestrogen receptor beta (ERβ) (human (endogenous in A549)) (UniProt Q92731); assay: as above

| Molecule | binding [1] | binding [2] |
| --- | --- | --- |
| Oestrogen receptor beta (ERβ) (from UniProt Q92731 1-530) | binds | – |
| B1 | – | binds |
